No constants are given. Whether binding was seen depends on the method and setting. In cells and extracts the contact can be indirect. These calls come from enrichment with a bait or labelling near it, and not all partners need be listed. Tags and fused reporters may be left off the sequences shown.
T1: NUP85-MYC (NUCLEOPORIN 85, expressed from NUP85pro:NUP85-MYC) (Arabidopsis thaliana) (UniProt Q8RXH2)
T1 sequence: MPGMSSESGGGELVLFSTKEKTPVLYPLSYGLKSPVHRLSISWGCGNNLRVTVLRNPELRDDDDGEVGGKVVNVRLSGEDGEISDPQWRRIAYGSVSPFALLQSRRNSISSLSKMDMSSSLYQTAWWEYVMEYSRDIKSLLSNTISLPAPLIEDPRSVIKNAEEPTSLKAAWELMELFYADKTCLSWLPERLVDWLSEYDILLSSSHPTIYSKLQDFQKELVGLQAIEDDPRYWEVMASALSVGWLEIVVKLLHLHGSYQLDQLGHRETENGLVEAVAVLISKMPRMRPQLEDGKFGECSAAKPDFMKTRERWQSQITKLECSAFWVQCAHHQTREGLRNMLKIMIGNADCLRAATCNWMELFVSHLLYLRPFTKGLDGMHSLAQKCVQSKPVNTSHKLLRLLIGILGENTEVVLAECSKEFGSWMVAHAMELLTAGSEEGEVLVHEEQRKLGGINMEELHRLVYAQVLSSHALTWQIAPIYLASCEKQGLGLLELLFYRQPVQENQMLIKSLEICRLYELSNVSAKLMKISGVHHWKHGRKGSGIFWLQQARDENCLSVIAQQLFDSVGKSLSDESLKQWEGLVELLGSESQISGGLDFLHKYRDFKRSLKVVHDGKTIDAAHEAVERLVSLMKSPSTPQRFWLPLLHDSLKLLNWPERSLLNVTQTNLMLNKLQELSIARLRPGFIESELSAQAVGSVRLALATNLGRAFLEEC


Molecular target: T1, NUP85-MYC (NUCLEOPORIN 85, expressed from NUP85pro:NUP85-MYC) (Arabidopsis thaliana)
Assay: affinity purification with mass spectrometry; anti-MYC agarose beads on total protein extract of 12-day-old NUP85pro:NUP85-MYC transgenic seedlings, WT seedlings as negative control; 4 h at 4°C; two independent IP-MS experiments

| binding | Binder |
| --- | --- |
| binds | NUP107 (protein, UniProt Q8L748 1-1101) MDMDMDTSPSYFDPEALSVRDQFRRYRKRHSTSPHEEMLSSNVSENRLLYDGHNIHSPTNTALLLENIKEEVDNFHTDHYEGTPTNPISASRRESVGILNDDDEALFRRVESQSLKACKIENDELAESGDTTFALFASLFDSALQGLMSIPNLMLRLEESCRNVSQSIRYGSDIRHRAVEDKLMRQKAQLLLGEAASWSLLWNLYGKGTDEVPENLILIPSTSHLEACQFVLNDHTAQLCLRIVMWLEELASKSLDLERKVQGSHVGTYLPNAGVWHHTQRYLKKNGSNADTLHHLDFDAPTREHARLLPDDYKQDESVLEDVWTLIRAGRIEEACDLCRSAGQSWRAATLCPFSGMDMFPSIEALVKNGENRTLQAIEQESGFGNQLRLWKWASYCASEKIAEQDGGKHEVAVFATQCSNLNRMLPICTDWESACWAMAKSWLDVQVDLELAQSKPGLTERFKSCIDESPEATQNGCQASFGPEDWPLHVLNQQPRDLPALLQKLHSGEMVHEAVVRGCKEQHRQIQMNLMLGDISHLLDIIWSWIAPLEDDQSNFRPHGDPHMIKFGAHMVLVLRLLFTDEINDSFKEKLNNVGDLILHMYAMFLFSKQHEELVGIYASQLARHRCIELFVHMMELRMHSSVHVKYKIFLSAMEYLSFSPVDDLHGNFEEIVDRVLSRSREIKLAKYDPSIDVAEQHRQQSLQKAIAIQWLCFTPPSTIKDVKDVTSKLLLRSLMHSNILFREFALIAMWRVPATPVGAHTLLSYLAEPLKQLSENPDTLEDYVSENLQEFQDWNEYYSCDAKYRNWLKFQLENAEVTELSEEENQKAVVAAKETLDSSLSLLLRQDNPWMTFLEDHVFESEEYLFLELHATAMLCLPSGECLRPDATVCAALMSALYSSVSEEVVLDRQLMVNVSISSRDSYCIEVVLRCLAIKGDGLGPHNANDGGILSAVAAAGFKGSDIYGTYFSFTYDLPPFSIEIWGCELTRFQAGVTMDISRLDAWYSSKEGSLETPATYIVRGLCRRCCLPELVLRSMQVSVSLMESGNPPEDHDELIELVASDETGFLSLFSRQQLQEFMLFEREYRMSQLELQEELSSP |
| binds | Sec13A, endogenous (protein, UniProt Q9SRI1 1-302) MPPQKIETGHSDTIHDVVMDYYGKRVATASSDCTIKITGVSNSGGSQHLATLTGHRGPVWQVAWAHPKFGSLLASCSYDGQIILWKEGNQNQWTQAHVFTDHKVSVNSIAWAPHELGLSLACGASDGNISVFSARADGGWDTTKIDQAHPVGVTSVSWAPATEPGALVSSGMIDPVYKLASGGCDSTVKVWKFSNGSWKMDCFPALNKHTDWVRDVAWAPNLGLPKSTIASGSEDGKVIIWTIGKEGEQWEGTVLKDFKTPVWRVSWSLTGNLLAVSDGNNNVTVWKESVDGEWEQVTVVEP |

— paper PMC5741264
